Test results from paper PMC11550977.
No constants are given. Whether binding was seen depends on the method and setting. Binding seen in cells or lysates may run through a third protein. Some binding calls cover weakened binding; strength is not graded here.

By UniProt entry, the sequences of proteins in these tests, tags left out.
UniProt P52732: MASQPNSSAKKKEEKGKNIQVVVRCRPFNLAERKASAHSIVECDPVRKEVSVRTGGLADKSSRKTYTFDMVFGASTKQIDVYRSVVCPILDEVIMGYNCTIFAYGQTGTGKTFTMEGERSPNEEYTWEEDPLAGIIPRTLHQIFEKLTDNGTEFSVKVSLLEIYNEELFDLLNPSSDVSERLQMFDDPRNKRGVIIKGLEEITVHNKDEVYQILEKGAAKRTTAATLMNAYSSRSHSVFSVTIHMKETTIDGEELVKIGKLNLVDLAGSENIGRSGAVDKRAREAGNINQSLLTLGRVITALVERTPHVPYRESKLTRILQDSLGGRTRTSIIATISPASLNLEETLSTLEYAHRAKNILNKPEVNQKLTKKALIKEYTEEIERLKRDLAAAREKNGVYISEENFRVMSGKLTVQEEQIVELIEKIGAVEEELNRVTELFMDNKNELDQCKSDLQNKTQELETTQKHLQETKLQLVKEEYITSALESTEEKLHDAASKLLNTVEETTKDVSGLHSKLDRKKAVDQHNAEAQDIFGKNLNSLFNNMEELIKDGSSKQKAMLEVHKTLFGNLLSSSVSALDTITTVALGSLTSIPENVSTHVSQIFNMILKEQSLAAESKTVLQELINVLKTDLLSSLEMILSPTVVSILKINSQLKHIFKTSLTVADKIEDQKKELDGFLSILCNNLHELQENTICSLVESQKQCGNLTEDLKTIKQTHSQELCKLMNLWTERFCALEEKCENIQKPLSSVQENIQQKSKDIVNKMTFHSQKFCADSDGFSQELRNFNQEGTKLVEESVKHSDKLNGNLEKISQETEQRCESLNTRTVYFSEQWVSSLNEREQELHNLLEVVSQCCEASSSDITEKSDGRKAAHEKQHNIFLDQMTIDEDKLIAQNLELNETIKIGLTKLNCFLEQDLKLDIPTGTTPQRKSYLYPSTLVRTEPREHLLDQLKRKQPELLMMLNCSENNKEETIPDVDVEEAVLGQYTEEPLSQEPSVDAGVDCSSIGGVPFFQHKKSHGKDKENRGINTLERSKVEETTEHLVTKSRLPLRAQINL

Biological target: T1, RACGAP1 (human (endogenous in HepG2 and HCC-LM3)) (UniProt Q9H0H5)
T1 sequence: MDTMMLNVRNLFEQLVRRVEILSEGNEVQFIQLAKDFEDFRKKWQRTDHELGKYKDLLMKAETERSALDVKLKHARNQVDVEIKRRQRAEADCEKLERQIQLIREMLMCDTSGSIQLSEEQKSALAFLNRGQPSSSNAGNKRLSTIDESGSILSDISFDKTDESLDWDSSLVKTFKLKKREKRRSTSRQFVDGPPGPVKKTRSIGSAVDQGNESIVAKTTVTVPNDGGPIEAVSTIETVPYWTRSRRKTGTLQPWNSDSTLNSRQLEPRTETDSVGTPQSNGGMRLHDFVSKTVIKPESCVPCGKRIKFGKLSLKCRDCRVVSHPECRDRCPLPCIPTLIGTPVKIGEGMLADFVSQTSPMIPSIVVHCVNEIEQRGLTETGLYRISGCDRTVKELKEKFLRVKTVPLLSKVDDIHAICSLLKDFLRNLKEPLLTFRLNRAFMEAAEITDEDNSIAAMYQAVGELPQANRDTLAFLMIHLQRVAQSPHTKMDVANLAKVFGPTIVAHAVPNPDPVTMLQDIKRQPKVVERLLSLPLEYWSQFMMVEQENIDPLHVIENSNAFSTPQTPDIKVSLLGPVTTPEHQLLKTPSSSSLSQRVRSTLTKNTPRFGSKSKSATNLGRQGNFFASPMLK
Assay: co-IP; lysates of HepG2 and LM3 cells; 2 ug primary antibody overnight at 4°C, Protein A+G Agarose 1 h at 4°C, washed 5 times with PBS; Beyotime Immunoprecipitation Kit

binding: binds
Substance: KIF11 (from UniProt P52732 1-1056)
